Experimental data: publication PMC6613617
These are yes or no findings as the source states them, for the method shown. In cells and extracts the contact can be indirect. Some entries that bind do so weakly or less than the wild type. Tags and fused reporters may be left off the sequences shown.

The chains behind the UniProt entries cited, without tags or fusion partners. Where a name states a change or a piece, a line headed by the entry shows the natural chain unless it says otherwise.
UniProt P28340: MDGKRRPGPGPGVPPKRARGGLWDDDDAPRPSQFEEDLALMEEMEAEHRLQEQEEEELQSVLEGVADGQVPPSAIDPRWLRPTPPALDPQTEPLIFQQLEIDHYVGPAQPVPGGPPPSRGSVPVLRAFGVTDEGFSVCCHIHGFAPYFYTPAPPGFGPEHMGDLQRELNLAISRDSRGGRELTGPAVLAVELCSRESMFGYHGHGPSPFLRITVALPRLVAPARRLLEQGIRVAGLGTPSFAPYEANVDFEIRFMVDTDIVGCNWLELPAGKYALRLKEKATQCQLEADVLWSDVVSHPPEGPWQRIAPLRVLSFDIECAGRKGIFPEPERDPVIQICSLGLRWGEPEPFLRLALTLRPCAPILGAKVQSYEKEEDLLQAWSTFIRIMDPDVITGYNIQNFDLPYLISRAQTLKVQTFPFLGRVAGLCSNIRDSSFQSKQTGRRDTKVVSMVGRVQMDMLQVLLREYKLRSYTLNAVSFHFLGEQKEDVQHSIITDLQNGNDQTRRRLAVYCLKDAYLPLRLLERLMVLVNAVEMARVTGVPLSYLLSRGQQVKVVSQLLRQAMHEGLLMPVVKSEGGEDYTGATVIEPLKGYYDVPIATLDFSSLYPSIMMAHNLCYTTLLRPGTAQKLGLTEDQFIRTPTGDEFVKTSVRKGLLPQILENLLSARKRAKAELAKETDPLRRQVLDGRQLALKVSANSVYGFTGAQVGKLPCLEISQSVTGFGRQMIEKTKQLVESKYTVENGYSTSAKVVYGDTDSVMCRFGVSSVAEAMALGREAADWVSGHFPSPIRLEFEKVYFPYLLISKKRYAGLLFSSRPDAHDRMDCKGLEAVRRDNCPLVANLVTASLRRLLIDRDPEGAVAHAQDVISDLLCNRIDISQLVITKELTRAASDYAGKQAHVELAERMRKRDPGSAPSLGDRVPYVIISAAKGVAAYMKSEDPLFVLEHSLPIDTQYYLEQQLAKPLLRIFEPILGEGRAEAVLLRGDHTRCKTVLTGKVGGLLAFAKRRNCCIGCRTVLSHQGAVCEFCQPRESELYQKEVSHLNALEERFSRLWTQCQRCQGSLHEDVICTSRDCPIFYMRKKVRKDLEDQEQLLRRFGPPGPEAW

Columns and labels:
[1] = target: N-terminally Flag-tagged POLD1 H1066Y (human) (UniProt P28340); assay: pull-down; Flag-pull down (Flag-M2 agarose) from lysate of Sf9 cells co-expressing Flag-POLD1 variant, POLD2, POLD3, POLD4 and untagged PCNA; 50 mM Tris-HCl pH 8.0, 200 mM NaCl, 0.25% NP-40, 4°C; SDS-PAGE with protein stain
[2] = target: N-terminally Flag-tagged POLD1 H1066W (human) (UniProt P28340); assay: as above
[3] = target: N-terminally Flag-tagged POLD1 H1066Y (human) (UniProt P28340); assay: pull-down; Flag-pull down (Flag-M2 agarose) from lysate of Sf9 cells co-expressing Flag-POLD1 variant, POLD2, POLD3 and POLD4, without PCNA; 50 mM Tris-HCl pH 8.0, 200 mM NaCl, 0.25% NP-40, 4°C; SDS-PAGE with protein stain
[4] = target: N-terminally Flag-tagged POLD1 H1066W (human) (UniProt P28340); assay: as above
[5] = target: N-terminally Flag-tagged POLD1 H1066Y (human) (UniProt P28340); assay: pull-down; Flag-pull down (Flag-M2 agarose) from lysate of Sf9 cells co-expressing Flag-POLD1 variant, POLD2 and POLD3 (three-subunit Pol δ3, no POLD4), with or without PCNA; SDS-PAGE with protein stain
[6] = target: N-terminally Flag-tagged POLD1 H1066W (human) (UniProt P28340); assay: as above

Measured: binding

B1: POLD4 (accessory subunit of human DNA polymerase delta), untagged (protein, UniProt Q9HCU8 1-107)
chain: MGRKRLITDSYPVVKRREGPAGHSKGELAPELGEEPQPRDEEEAELELLRQFDLAWQYGPCTGITRLQRWCRAKQMGLEPPPEVWQVLKTHPGDPRFQCSLWHLYPL
binds: [1] | [2] | [3] | [4]

B2: POLD3 (accessory subunit of human DNA polymerase delta), untagged (protein, UniProt Q15054 1-466)
chain: MADQLYLENIDEFVTDQNKIVTYKWLSYTLGVHVNQAKQMLYDYVERKRKENSGAQLHVTYLVSGSLIQNGHSCHKVAVVREDKLEAVKSKLAVTASIHVYSIQKAMLKDSGPLFNTDYDILKSNLQNCSKFSAIQCAAAVPRAPAESSSSSKKFEQSHLHMSSETQANNELTTNGHGPPASKQVSQQPKGIMGMFASKAAAKTQETNKETKTEAKEVTNASAAGNKAPGKGNMMSNFFGKAAMNKFKVNLDSEQAVKEEKIVEQPTVSVTEPKLATPAGLKKSSKKAEPVKVLQKEKKRGKRVALSDDETKETENMRKKRRRIKLPESDSSEDEVFPDSPGAYEAESPSPPPPPSPPLEPVPKTEPEPPSVKSSSGENKRKRKRVLKSKTYLDGEGCIVTEKVYESESCTDSEEELNMKTSSVHRPPAMTVKKEPREERKGPKKGTAALGKANRQVSITGFFQRK
binds: all assays above
